Results as given in the supplement of paper PMC10849652.
The list shows a part of the results.

By UniProt entry, the sequences of proteins in these tests, tags left out. Where a name states a change or a piece, a line headed by the entry shows the natural chain unless it says otherwise.
UniProt Q8NEZ2: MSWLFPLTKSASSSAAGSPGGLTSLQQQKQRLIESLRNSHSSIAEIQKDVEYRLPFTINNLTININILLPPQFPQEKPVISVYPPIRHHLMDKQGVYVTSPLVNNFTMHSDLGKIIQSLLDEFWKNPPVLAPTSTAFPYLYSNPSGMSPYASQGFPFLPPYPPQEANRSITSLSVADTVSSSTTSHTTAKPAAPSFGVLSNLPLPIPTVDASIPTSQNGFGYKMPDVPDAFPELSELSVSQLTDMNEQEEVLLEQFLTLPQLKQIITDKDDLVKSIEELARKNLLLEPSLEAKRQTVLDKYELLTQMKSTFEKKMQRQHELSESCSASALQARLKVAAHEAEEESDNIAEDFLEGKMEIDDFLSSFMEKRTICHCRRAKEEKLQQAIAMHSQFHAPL
UniProt Q9HBM0: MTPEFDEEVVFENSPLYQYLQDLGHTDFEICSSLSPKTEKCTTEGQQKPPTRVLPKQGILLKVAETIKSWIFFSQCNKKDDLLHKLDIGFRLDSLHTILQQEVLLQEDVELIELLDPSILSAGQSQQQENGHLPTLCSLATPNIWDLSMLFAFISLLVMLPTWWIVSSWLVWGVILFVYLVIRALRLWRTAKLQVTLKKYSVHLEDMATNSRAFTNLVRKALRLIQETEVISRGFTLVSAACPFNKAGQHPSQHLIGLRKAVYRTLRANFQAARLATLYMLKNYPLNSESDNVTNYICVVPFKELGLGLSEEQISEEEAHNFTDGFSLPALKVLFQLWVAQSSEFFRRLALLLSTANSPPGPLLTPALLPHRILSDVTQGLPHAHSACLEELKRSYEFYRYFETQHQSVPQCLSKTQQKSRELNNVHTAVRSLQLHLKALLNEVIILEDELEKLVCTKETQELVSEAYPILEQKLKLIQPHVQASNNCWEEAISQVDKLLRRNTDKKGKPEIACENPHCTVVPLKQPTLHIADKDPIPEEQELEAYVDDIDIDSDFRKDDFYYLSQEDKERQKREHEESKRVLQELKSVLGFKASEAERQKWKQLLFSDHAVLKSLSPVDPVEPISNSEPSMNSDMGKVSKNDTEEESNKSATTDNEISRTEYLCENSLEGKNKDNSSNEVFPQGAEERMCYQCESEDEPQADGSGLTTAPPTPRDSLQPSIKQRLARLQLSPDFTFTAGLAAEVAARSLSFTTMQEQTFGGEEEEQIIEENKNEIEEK
UniProt Q9NZC7: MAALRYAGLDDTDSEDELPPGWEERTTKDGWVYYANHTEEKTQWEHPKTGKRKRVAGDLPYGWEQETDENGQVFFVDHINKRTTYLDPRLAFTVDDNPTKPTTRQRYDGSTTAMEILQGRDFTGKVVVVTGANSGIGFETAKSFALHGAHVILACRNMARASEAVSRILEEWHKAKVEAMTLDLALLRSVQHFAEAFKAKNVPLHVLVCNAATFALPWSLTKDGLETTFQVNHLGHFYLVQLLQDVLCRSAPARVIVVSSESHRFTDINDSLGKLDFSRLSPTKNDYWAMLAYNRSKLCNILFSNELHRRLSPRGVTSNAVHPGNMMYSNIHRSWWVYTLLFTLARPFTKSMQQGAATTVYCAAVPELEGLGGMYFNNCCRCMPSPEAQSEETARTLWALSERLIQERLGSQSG
UniProt Q9BZH6: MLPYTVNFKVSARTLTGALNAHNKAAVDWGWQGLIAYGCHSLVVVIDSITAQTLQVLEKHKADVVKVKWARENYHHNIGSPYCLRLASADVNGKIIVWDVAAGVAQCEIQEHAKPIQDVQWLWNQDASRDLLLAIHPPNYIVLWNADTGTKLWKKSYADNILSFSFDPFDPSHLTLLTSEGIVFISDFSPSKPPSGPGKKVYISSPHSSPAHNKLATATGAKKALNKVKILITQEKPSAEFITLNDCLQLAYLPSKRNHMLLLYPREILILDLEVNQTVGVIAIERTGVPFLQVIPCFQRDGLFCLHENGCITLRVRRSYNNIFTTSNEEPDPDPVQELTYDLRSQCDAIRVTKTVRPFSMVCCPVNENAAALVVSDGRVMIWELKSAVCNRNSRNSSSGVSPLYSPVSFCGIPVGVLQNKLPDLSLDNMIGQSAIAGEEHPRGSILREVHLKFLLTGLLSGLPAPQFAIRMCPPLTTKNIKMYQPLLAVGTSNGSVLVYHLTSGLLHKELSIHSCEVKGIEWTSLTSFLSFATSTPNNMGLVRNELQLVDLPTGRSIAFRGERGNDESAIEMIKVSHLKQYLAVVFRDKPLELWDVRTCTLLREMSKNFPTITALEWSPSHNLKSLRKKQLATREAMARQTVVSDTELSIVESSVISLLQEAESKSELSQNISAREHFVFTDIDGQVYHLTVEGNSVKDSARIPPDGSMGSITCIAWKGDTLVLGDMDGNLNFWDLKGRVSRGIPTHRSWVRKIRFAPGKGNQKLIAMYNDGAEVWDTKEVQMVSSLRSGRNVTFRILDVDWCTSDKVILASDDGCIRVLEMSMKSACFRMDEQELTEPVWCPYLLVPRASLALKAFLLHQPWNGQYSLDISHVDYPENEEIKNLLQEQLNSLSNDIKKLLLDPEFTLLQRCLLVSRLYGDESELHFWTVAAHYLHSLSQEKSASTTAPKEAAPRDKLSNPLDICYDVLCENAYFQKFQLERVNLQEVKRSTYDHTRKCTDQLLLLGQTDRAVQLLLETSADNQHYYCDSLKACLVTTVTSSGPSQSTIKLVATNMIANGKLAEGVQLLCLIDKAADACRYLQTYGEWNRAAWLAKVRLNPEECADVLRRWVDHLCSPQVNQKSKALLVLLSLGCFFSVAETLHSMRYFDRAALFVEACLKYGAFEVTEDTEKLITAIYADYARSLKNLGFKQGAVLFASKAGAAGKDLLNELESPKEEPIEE
UniProt Q5JSD2: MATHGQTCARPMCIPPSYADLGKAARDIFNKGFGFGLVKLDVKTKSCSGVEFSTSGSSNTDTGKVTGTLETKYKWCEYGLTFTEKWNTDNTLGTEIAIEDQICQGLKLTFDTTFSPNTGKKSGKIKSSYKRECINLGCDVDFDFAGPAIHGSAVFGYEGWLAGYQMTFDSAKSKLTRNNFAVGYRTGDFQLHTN
UniProt Q9UID3: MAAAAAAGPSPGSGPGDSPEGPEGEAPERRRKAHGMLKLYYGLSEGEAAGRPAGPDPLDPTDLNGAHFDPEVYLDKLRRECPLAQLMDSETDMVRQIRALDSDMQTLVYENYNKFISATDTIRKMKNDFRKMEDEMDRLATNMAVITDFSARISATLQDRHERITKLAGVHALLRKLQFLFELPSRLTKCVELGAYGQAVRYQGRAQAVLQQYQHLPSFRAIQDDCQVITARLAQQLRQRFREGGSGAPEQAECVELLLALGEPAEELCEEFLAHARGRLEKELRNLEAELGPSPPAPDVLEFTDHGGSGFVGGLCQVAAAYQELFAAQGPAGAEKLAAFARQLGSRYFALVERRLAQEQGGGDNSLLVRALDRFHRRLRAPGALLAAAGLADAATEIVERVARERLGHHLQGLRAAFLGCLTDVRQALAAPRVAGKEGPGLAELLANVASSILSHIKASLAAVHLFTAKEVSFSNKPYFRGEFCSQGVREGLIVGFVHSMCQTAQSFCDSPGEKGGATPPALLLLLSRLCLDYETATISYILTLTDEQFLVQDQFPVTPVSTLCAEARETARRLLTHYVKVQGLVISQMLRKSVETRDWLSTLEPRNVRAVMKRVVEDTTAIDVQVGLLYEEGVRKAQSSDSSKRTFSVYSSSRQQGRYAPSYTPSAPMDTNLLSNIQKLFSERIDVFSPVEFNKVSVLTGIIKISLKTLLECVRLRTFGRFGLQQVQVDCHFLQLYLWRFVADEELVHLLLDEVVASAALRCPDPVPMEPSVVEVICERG
UniProt Q9H9C1: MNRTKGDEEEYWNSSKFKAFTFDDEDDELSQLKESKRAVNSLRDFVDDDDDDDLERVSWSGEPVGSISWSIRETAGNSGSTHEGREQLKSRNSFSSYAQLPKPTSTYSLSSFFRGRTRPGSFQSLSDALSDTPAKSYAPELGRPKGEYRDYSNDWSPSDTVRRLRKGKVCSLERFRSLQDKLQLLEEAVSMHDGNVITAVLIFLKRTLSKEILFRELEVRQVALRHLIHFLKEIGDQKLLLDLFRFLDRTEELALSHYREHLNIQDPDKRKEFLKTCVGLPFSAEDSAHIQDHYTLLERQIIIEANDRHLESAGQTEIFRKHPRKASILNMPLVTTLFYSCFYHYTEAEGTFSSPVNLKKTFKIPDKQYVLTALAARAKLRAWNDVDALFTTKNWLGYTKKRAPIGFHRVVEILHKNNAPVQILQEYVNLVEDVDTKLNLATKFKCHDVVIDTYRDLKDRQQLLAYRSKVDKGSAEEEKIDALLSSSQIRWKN
UniProt Q96S15: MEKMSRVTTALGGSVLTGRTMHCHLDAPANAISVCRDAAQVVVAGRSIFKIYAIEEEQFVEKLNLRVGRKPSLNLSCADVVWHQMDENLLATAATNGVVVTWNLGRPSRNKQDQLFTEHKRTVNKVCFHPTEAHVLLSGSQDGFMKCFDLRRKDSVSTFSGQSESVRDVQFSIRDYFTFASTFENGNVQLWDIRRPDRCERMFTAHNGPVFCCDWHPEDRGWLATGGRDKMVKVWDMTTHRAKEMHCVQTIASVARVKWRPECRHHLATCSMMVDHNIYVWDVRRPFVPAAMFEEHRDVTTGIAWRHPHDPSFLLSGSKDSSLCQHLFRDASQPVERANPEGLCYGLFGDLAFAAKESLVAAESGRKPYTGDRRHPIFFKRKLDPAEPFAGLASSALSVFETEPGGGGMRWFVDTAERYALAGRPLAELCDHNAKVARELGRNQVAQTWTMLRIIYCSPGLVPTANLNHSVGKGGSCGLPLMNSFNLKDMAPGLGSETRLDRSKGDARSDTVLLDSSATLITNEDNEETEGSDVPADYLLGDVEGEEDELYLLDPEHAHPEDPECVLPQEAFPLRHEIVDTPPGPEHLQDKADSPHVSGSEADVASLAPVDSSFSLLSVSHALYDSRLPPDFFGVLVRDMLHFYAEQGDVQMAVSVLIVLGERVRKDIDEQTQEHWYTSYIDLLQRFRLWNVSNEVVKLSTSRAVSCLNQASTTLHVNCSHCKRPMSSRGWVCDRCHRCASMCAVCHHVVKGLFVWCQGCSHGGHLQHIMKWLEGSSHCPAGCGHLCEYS
UniProt Q15007: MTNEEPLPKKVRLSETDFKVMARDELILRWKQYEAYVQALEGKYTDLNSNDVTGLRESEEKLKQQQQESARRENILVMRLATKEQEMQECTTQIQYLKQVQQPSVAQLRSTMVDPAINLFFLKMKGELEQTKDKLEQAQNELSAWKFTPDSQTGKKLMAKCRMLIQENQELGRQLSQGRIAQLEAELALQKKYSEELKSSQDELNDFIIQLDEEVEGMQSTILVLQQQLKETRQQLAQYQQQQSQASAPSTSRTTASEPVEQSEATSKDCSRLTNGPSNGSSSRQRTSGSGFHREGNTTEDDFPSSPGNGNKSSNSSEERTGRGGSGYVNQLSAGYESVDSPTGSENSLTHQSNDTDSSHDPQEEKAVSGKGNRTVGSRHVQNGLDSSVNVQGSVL
UniProt O15240: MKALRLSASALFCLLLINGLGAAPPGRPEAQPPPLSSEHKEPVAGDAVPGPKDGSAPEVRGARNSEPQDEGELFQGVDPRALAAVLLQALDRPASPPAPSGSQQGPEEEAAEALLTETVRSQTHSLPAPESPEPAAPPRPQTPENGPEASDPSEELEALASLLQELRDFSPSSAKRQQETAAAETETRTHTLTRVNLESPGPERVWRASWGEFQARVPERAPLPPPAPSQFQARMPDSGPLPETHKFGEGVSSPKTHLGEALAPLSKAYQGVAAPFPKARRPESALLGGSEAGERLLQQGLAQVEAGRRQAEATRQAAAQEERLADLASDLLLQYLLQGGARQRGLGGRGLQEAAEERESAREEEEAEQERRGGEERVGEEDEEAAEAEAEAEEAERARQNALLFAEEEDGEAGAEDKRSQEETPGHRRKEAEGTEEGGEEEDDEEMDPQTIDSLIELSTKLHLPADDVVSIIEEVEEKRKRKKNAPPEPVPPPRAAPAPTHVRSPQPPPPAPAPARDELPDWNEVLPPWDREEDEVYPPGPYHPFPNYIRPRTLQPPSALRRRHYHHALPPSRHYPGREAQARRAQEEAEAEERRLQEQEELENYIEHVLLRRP
UniProt O95497: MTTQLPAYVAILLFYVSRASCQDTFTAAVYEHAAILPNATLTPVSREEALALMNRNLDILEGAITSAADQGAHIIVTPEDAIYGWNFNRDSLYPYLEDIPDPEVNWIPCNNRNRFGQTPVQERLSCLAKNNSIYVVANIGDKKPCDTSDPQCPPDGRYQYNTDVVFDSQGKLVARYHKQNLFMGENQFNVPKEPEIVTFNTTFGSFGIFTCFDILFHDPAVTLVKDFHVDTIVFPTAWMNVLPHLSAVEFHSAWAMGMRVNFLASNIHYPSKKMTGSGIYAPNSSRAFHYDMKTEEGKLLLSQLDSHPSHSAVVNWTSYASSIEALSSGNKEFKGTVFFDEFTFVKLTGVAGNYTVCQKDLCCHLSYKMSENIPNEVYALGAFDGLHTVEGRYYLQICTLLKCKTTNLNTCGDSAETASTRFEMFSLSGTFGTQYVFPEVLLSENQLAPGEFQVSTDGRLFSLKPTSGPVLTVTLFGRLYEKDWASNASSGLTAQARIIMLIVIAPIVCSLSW

Assays:
Experiment in all cases: log2 fold change, soluble protein after heating vs DMSO (PISA); higher = thermal stabilisation; K562 cells, 10 uM, 30 min; active = over 0.2 and 3.5 SD of the protein, either way, in both replicates (recomputed)
[1] = compound: CC1=C(C=C(C=C1)NC(=O)C2=CC(=CC=C2)C(C)(C)C#N)NC3=CC4=C(C=C3)N=CN(C4=O)C
Method in brief: (§1)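 For each measurement, 10 μM compound was applied for 30 min to K562 cells at 2×10^6 cells/mL. Aliquots were heated for 3 min across 48°C-58°C, pooled, and extracted in PBS with 0.5% NP-40 at 4°C; the supernatant after 21,000xg for 90 min was soluble protein. This was quantified by TMTpro 16plex LC-MS/MS with channel sums equalised, and thermal stability was reported relative to control samples from duplicates, on a log2 fold-change scale.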

[2] = compound: CC1=C(C=C(C=C1)NC(=O)C2=CC(=CC=C2)N(C)C)NC(=O)C3=CC=C(C=C3)O
Method in brief: as §1

[3] = compound: CC1=CC=C(C=C1)SC2=C3C=C(SC3=CN=C2)C(=O)N
Method in brief: as §1

[4] = compound: CC1=NC(=CC=C1)C2=C(N=C(N2)C(C)(C)C)C3=CC4=NC=CN=C4C=C3
Method in brief: as §1

[5] = compound: CCCCN(Cc1ccc(C(=O)NO)cc1)C(=O)Nc1ccccc1 [Nexturastat A]
Method in brief: as §1

[6] = compound: CCCS(=O)(=O)Nc1ccc(F)c(C(=O)c2c[nH]c3ncc(-c4ccc(Cl)cc4)cc23)c1F [vemurafenib]
Method in brief: as §1

[7] = compound: CCCS(=O)(=O)Nc1ccc(F)c(C(=O)c2c[nH]c3ncc(Cl)cc23)c1F
Method in brief: as §1

[8] = compound: CCCc1cc(C)[nH]c(=O)c1CNC(=O)c1cc(-c2ccnc(N3CCN(C)CC3)c2)cc2c1cnn2C(C)C
Method in brief: as §1

[9] = compound: CCN(CC)Cc1ccc2cc(COC(=O)Nc3ccc(C(=O)NO)cc3)ccc2c1 [givinostat]
Method in brief: as §1

[10] = compound: CCN(CCCOc1ccc2c(Nc3cc(CC(=O)Nc4cccc(F)c4)[nH]n3)ncnc2c1)CCOP(=O)(O)O [barasertib]
Method in brief: as §1

[11] = compound: CC[C@@H]1C(=O)N(C)c2cnc(Nc3ccc(C(=O)N[C@H]4CC[C@H](N5CCN(CC6CC6)CC5)CC4)cc3OC)nc2N1C(C)C [volasertib]
Method in brief: as §1

[12] = compound: CC[C@H](C)N1C=C(C2=C(C=C(C=C21)C3=CN=C(C=C3)N4CCNCC4)C(=O)NCC5=C(C=C(NC5=O)C)C)C
Method in brief: as §1

[13] = compound: CC[C@H](C)[C@@H](C(=O)N[C@@H]([C@@H](C)O)C(=O)N[C@@H](CC(C)C)C(=O)[C@]1(CO1)C)NC(=O)[C@H]([C@@H](C)CC)N(C)C(=O)C [epoxomicin]
Method in brief: as §1

[14] = compound: CCn1cc(-c2ccnc3[nH]c(-c4cccc(CN(C)C)c4)cc23)c(-c2ccc(NC(=O)N(C)C)cc2)n1
Method in brief: as §1

[15] = compound: CN(C)CC(=O)Nc1ccc2[nH]c(=O)c3ccccc3c2c1
Method in brief: as §1

[16] = compound: CN1C2=C(C3=C1C(=O)N(N=C3)CC4=CC(=CC=C4)N)SC(=C2)S(=O)C
Method in brief: as §1

[17] = compound: CN1CCC(CNc2ccc3ncc(-c4cccc(OC(F)(F)F)c4)n3n2)CC1
Method in brief: as §1

[18] = compound: CCn1c(C(=O)N(C2CC2)C2CC2)cc2c3c(ncn3C)c(Nc3cc(C)n(C)n3)nc21
Method in brief: as §1

[19] = compound: CN(CCOC1=CC=C(C=C1)C[C@H]2C(=O)NC(=O)S2)C3=CC=CC=N3 (racemic) [rosiglitazone]
Method in brief: as §1

[20] = compound: CC[C@@H]1C(=O)N(C)c2cnc(Nc3ccc(C(=O)NC4CCN(C)CC4)cc3OC)nc2N1C1CCCC1
Method in brief: as §1

Row | Target | log2 fold change [1] | log2 fold change [2] | log2 fold change [3] | log2 fold change [4] | log2 fold change [5] | log2 fold change [6] | log2 fold change [7] | log2 fold change [8] | log2 fold change [9] | log2 fold change [10] | log2 fold change [11] | log2 fold change [12] | log2 fold change [13] | log2 fold change [14] | log2 fold change [15] | log2 fold change [16] | log2 fold change [17] | log2 fold change [18] | log2 fold change [19] | log2 fold change [20]
1 | VPS37A (UniProt Q8NEZ2) | inactive: -0.015 | inactive: -0.171 | inactive: 0.019 | inactive: 0.001 | inactive: -0.048 | inactive: 0.128 | inactive: 0.054 | inactive: 0.014 | inactive: 0.14 | inactive: 0.076 | active: -0.707 | inactive: 0.085 | inactive: 0.045 | inactive: -0.068 | inactive: 0.165 | inactive: 0.025 | inactive: 0.054 | – | – | –
2 | VEZT (UniProt Q9HBM0) | inactive: 0.004 | inactive: -0.041 | inactive: -0.07 | inactive: -0.035 | inactive: -0.064 | inactive: 0.143 | inactive: -0.006 | inactive: 0.061 | inactive: -0.093 | inactive: -0.1 | inactive: -0.211 | inactive: 0.148 | inactive: 0.003 | inactive: -0.003 | inactive: 0.066 | inactive: -0.038 | inactive: 0.249 | inactive: -0.039 | inactive: 0.177 | –
3 | WWOX (UniProt Q9NZC7) | inactive: -0.137 | – | inactive: -0.064 | – | – | – | inactive: -0.106 | inactive: -0.02 | inactive: 0.073 | – | inactive: 0.076 | – | – | – | – | – | – | inactive: -0.184 | – | –
4 | WDR11 (UniProt Q9BZH6) | inactive: -0.004 | inactive: 0.057 | inactive: -0.008 | inactive: -0.016 | inactive: -0.097 | inactive: -0.089 | inactive: -0.084 | inactive: -0.105 | inactive: 0.035 | inactive: 0.034 | inactive: 0.031 | inactive: -0.183 | inactive: 0 | inactive: 0.089 | inactive: -0.061 | inactive: 0.009 | inactive: -0.131 | – | – | inactive: 0.079
5 | VDAC2 (UniProt Q5JSD2) | inactive: -0.075 | – | inactive: -0.165 | – | inactive: 0.089 | – | inactive: -0.241 | inactive: -0.297 | – | inactive: -0.019 | inactive: 0.034 | inactive: -0.204 | inactive: 0.049 | inactive: 0.181 | – | – | inactive: -0.035 | – | – | inactive: 0.265
6 | WDR33 (UniProt Q9C0J8) | inactive: -0.001 | inactive: 0.136 | inactive: -0.047 | – | inactive: -0.013 | inactive: -0.147 | inactive: -0.063 | inactive: -0.008 | inactive: 0.088 | inactive: -0.162 | inactive: 0.143 | inactive: -0.033 | inactive: 0.257 | – | inactive: -0.066 | – | – | inactive: 0.034 | inactive: 0.009 | inactive: -0.027
7 | VPS51 (UniProt Q9UID3) | inactive: 0 | inactive: -0.031 | inactive: -0.045 | inactive: 0.017 | inactive: 0.032 | inactive: 0.034 | inactive: 0.021 | inactive: 0.032 | inactive: 0.071 | inactive: 0.059 | active: -0.335 | inactive: -0.036 | inactive: -0.015 | inactive: 0.003 | inactive: 0.032 | inactive: 0.094 | inactive: -0.135 | – | – | inactive: -0.028
8 | VDAC1 (UniProt C9JI87) | inactive: -0.03 | inactive: -0.003 | inactive: -0.034 | – | inactive: -0.093 | – | inactive: -0.134 | inactive: -0.053 | inactive: -0.052 | inactive: 0.071 | inactive: 0.08 | inactive: -0.334 | inactive: -0.007 | – | – | inactive: 0.21 | – | – | – | inactive: 0.097
9 | VIPAS39 (UniProt Q9H9C1) | inactive: -0.366 | – | inactive: 0.032 | – | – | inactive: 0.077 | inactive: 0.146 | inactive: -0.077 | inactive: 0.052 | inactive: -0.093 | inactive: -0.402 | inactive: 0.257 | – | – | inactive: 0.139 | inactive: 0.096 | – | inactive: -0.044 | inactive: 0.297 | –
10 | WARS1 (UniProt G3V277) | inactive: 0.02 | – | – | inactive: -0.043 | – | active: -0.587 | – | inactive: -0.338 | inactive: 0.141 | inactive: 0.073 | – | inactive: -0.041 | – | inactive: 0.098 | inactive: -0.163 | – | inactive: -0.12 | – | – | –
11 | WARS1 (UniProt G3V5U1) | inactive: -0.795 | – | – | inactive: -0.638 | inactive: 0.136 | – | – | inactive: -0.118 | – | inactive: -0.007 | – | – | inactive: -0.237 | – | – | – | – | – | – | inactive: -0.03
12 | VTA1 (UniProt Q9NP79) | inactive: 0.011 | inactive: -0.019 | inactive: 0.044 | inactive: 0.034 | inactive: -0.041 | inactive: 0.042 | inactive: 0.082 | inactive: -0.065 | inactive: -0.005 | inactive: 0.041 | active: -0.291 | inactive: 0.06 | inactive: 0.024 | inactive: -0.045 | inactive: 0.048 | inactive: -0.041 | inactive: -0.079 | – | – | inactive: -0.172
13 | WDR24 (UniProt Q96S15) | inactive: 0.046 | inactive: 0.045 | inactive: -0.087 | – | inactive: -0.064 | – | inactive: -0.175 | – | inactive: 0.008 | – | inactive: -0.049 | – | inactive: 0.145 | inactive: -0.05 | – | – | inactive: -0.015 | inactive: -0.02 | – | inactive: -0.067
14 | WTAP (UniProt Q15007) | inactive: -0.016 | – | inactive: 0.069 | – | – | inactive: 0.091 | inactive: -0.041 | – | inactive: 0.123 | – | inactive: -0.115 | – | – | – | inactive: 0.028 | inactive: 0.261 | – | inactive: -0.119 | – | inactive: -0.3
15 | WARS1 (UniProt G3V227) | – | – | – | – | inactive: 0.459 | inactive: -0.455 | – | – | – | inactive: 0.004 | – | – | inactive: -0.28 | – | inactive: -0.045 | inactive: 0.207 | – | – | – | –
16 | WDR13, A0A087X091 | – | – | – | inactive: -0.053 | – | – | – | – | – | – | – | inactive: -0.137 | – | – | – | – | – | – | – | –
17 | XAB2 (UniProt Q9HCS7) | – | inactive: -0.027 | – | inactive: -0.034 | inactive: 0.469 | – | – | inactive: 0.168 | – | – | – | – | inactive: 0.019 | – | – | inactive: 0.026 | – | – | – | –
18 | VWF (UniProt P04275) | – | – | – | inactive: 0.157 | – | – | – | – | – | – | – | – | – | – | – | – | – | – | – | –
19 | VGF (UniProt O15240) | – | – | inactive: -0.301 | – | – | – | inactive: -0.452 | – | inactive: 0.09 | inactive: -0.069 | inactive: 0.232 | – | – | – | – | – | – | inactive: 0.002 | inactive: -0.096 | –
20 | WDR83 (UniProt Q9BRX9) | – | – | – | – | – | – | – | – | inactive: -0.132 | – | – | – | – | – | – | – | – | inactive: -0.036 | – | –
21 | VNN1 (UniProt O95497) | – | – | – | – | – | – | – | – | – | – | – | – | – | – | – | – | – | – | – | inactive: -0.153

Full records, quoted from the list. Order of values: log2 fold change [1]	log2 fold change [2]	log2 fold change [3]	log2 fold change [4]	log2 fold change [5]	log2 fold change [6]	log2 fold change [7]	log2 fold change [8]	log2 fold change [9]	log2 fold change [10]	log2 fold change [11]	log2 fold change [12]	log2 fold change [13]	log2 fold change [14]	log2 fold change [15]	log2 fold change [16]	log2 fold change [17]	log2 fold change [18]	log2 fold change [19]	log2 fold change [20]
XAB2 (UniProt Q9HCS7) as listed: –	inactive: -0.027	–	inactive: -0.034	inactive: 0.469	–	–	inactive: 0.168	–	–	–	–	inactive: 0.019	–	–	inactive: 0.026	–	–	–	–
WARS1 (UniProt G3V227) as listed: –	–	–	–	inactive: 0.459	inactive: -0.455	–	–	–	inactive: 0.004	–	–	inactive: -0.28	–	inactive: -0.045	inactive: 0.207	–	–	–	–
